These are yes or no findings as the source states them, for the method shown. Some results given as binding are weak or reduced against the parent protein; the word gives no strength.
Biological target: T1, recombinant VCAM-1 (commercial preparation, R & D Systems), immobilized (UniProt P19320)
T1 sequence (looked up): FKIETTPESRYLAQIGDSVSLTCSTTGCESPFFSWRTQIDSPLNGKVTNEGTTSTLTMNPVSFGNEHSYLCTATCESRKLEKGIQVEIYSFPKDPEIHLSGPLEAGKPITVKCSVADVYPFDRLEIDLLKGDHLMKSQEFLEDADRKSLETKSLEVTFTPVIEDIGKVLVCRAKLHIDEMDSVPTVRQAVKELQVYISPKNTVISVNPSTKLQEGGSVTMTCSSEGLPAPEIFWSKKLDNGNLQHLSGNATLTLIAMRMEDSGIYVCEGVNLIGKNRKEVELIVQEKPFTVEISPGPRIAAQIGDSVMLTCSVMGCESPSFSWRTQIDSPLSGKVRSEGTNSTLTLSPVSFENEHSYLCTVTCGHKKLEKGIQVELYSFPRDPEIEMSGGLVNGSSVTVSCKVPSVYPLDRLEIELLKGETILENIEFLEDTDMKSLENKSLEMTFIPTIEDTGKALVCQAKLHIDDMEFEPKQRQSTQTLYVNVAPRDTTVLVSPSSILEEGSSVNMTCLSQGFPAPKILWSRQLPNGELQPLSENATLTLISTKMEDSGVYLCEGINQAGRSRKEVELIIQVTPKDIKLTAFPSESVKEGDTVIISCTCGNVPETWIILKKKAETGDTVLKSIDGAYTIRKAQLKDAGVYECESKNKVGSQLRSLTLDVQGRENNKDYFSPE
Test: eosinophil adhesion assays

Amino acid sequences for entries named in this document (tags omitted). A change or cut given only in a name is not applied to a line headed by its entry.
UniProt Q13349: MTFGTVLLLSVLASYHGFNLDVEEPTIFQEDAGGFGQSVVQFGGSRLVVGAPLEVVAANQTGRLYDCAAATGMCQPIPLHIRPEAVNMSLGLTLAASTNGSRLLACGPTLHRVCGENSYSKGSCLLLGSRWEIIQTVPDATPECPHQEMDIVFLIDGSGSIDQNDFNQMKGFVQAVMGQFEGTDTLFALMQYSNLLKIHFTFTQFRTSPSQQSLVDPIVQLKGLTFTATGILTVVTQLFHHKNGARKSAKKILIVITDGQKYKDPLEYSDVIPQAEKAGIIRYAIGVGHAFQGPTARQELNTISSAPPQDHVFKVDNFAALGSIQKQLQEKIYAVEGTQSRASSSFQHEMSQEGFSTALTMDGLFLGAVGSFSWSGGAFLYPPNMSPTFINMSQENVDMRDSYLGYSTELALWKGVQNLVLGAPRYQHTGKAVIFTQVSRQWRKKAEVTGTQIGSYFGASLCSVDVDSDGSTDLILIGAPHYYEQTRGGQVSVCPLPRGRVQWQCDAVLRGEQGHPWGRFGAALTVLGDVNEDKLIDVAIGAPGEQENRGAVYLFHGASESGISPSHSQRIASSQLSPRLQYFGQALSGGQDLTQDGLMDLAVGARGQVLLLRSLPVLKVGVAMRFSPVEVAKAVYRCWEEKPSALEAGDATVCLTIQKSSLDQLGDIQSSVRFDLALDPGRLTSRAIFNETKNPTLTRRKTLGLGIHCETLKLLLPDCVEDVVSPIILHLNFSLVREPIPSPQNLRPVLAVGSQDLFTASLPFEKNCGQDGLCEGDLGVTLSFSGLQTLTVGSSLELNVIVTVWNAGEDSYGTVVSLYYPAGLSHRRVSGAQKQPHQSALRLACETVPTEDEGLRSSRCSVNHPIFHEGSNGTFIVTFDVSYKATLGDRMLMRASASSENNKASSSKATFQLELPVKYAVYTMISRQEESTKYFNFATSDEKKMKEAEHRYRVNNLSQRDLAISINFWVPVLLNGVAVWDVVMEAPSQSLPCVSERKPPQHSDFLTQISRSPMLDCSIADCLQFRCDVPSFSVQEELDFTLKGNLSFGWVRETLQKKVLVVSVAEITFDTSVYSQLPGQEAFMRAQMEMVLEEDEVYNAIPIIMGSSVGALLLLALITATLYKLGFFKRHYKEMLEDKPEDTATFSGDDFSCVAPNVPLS

## native human αd/CD18 on human leukocytes and myeloid cell lines (from UniProt Q13349 18-1161; P05107 23-769) (receptor; other documents disagree on this pair)
  binding: binds

Reference: US20020062008A1
